Experimental data: PubChem BioAssay AID602196 (INSERM, 2012)
Aim: 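Knock-downs that protect lung cancer cells from cisplatin or sensitise them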. Cells: human A549 lung cancer cells. Knock-down reagent: siRNA pair against human genes. Duration: 48 h transfection before cisplatin; time from cisplatin to read-out not stated. Treatment: cisplatin at a dose killing half of control-siRNA cells; exact dose and duration not given. Read-out: 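Shift in cisplatin death relative to control siRNA, from -50 (all cells die) to +50 (no cells die); siRNAs harmful on their own scored 0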. Scale: two-siRNA summed score (-2 to +2): higher = both siRNAs protect from cisplatin killing; -2 means both sensitise; mean protection from cisplatin (shift in death) and protection from cisplatin (shift in death), siRNA C and protection from cisplatin (shift in death), siRNA D: higher = protection from cisplatin killing. Active means: 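Each siRNA scores 0 if harmful alone by LDH or WST-1, otherwise +1 if it reduces and -1 if it increases cisplatin killing; a gene is active when both siRNAs agree (sum +2 or -2)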. Calls: active = both siRNAs shift cisplatin killing the same way; inactive = no consistent shift, or siRNA harmful alone.
This is an unselected part of about 23,000 deposited reagents. 455 of them (2%) were called active. 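Active includes both protection and sensitisation; some change values fall well beyond the stated -50 to +50 range.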 Reagents against one gene are numbered here. Reagent sequences are not shown. Not given: the amount of reagent.

Gene	reagent no.	two-siRNA summed score (-2 to +2)	mean protection from cisplatin (shift in death) (%)	protection from cisplatin (shift in death), siRNA C (%)	protection from cisplatin (shift in death), siRNA D (%)	activity call
CCDC124	1	0	5.9	9	2.8	inactive
DUOX1	1	0	0.3	7.1	-6.4	inactive
FASTKD3	1	0	-3.7	-2.2	-5.3	inactive
SLC9A3	1	0	3.3	27.4	-20.8	inactive
EVI2B	1	0	5.9	7.4	4.5	inactive
LOC441458	1	1	3.6	15	-7.8	inactive
CDHR5	1	0	4.5	7.4	1.6	inactive
DRP2	1	1	12.4	3	21.8	inactive
NXF2	1	-1	-3.8	-22.5	14.8	inactive
SBNO2	1	0	6.6	6.9	6.3	inactive
CLEC4E	1	0	3.2	11.1	-4.8	inactive
ARHGAP17	1	0	4.2	2.3	6.2	inactive
C17orf58	1	0	8	13.5	2.5	inactive
CMAS	1	-1	-13.8	-23.6	-4.1	inactive
SLC7A8	1	0	-16.6	-32.5	-0.7	inactive
ZC3H11A	1	0	4.8	0.4	9.2	inactive
GTF2A1L	1	1	16.8	20.3	13.3	inactive
CEP350	1	0	-5.8	-10.8	-0.9	inactive
CTCFL	1	0	1.6	-0.4	3.6	inactive
LOC390570	1	0	15.6	25.1	6.1	inactive
TEX13A	1	0	0.1	6.2	-6	inactive
SLC30A2	1	0	22.1	14.4	29.7	inactive
STX18	1	-1	-10	-3.6	-16.5	inactive
CNFN	1	0	-3.1	3.5	-9.8	inactive
ALKBH3	1	1	17.6	22.3	12.9	inactive
SPTBN1	1	0	0.8	-6.8	8.3	inactive
LOC116412	1	0	12	18.7	5.3	inactive
TMEM119	1	1	9.1	10.4	7.8	inactive
CST4	1	0	-3.4	-4.5	-2.3	inactive
PLEKHA8	1	0	0.8	-7.7	9.3	inactive

9 entries from above, limited to “two-siRNA summed score (-2 to +2)”:
CEP350	0
CTCFL	0
LOC390570	0
TEX13A	0
SLC30A2	0
STX18	-1
CNFN	0
ALKBH3	1
SPTBN1	0

More results follow.
Gene	reagent no.	two-siRNA summed score (-2 to +2)	mean protection from cisplatin (shift in death) (%)	protection from cisplatin (shift in death), siRNA C (%)	protection from cisplatin (shift in death), siRNA D (%)	activity call
ZNF416	1	0	-10.4	-10.7	-10.1	inactive
SNRK	1	1	4.5	-6.1	15.2	inactive
ZDHHC23	1	-1	-5.7	-16.5	5	inactive
LOC441696	1	0	11.3	9.4	13.3	inactive
SPINK6	1	0	9.8	2.9	16.7	inactive
ADGRF3	1	0	-1.1	-12.5	10.2	inactive
VAPA	1	0	5	-1.4	11.5	inactive
C10orf88	1	0	5	1.4	8.6	inactive
RBM10	1	0	-3.8	-21.8	14.2	inactive
TIMP2	1	0	2.3	4.2	0.4	inactive
KIAA1729	1	1	18.7	15.8	21.6	inactive
MS4A7	1	-1	-17.1	-22.3	-11.9	inactive
CABIN1	1	0	-13.5	-7.4	-19.6	inactive
KIAA1171	1	1	7.7	2.6	12.9	inactive
MADCAM1	1	0	3.3	-3.8	10.5	inactive
COL13A1	1	-1	-5.7	-9.6	-1.7	inactive
COL13A1	2	-1	-4.8	-10.7	1	inactive
COL13A1	3	-1	-3.3	-10.7	4.1	inactive
COL13A1	4	0	-3.9	-6.5	-1.4	inactive
COL13A1	5	0	-3.1	-7.1	1	inactive
COL13A1	6	0	-2.8	-6.4	0.7	inactive
COL13A1	7	0	-2.7	-6.8	1.4	inactive
COL13A1	8	0	-2.4	-5.7	0.9	inactive
COL13A1	9	0	-2.2	-6.8	2.5	inactive
COL13A1	10	0	-2	-6	1.9	inactive
COL13A1	11	0	-1.8	-7.3	3.8	inactive
COL13A1	12	0	-1.1	-3.4	1.3	inactive
COL13A1	13	0	-1.1	-6.6	4.5	inactive
COL13A1	14	1	5.9	0.3	11.5	inactive
COL13A1	15	1	9.5	3	15.9	inactive
COL13A1	16	1	10.6	1.6	19.6	inactive
COL13A1	17	1	11.1	3.1	19	inactive
COL13A1	18	1	12.8	8.2	17.3	inactive
COL13A1	19	1	14.3	7.8	20.9	inactive
